PubChem BioAssay AID652243, Drosophila RNAi Screening Center | 2013

Test: 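Fly genes required for human androgen receptor driven transcription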 (primary screen)
System: Drosophila S2R+ cells
Reagent: long dsRNA against Drosophila genes
Time to read-out: 72 h (48 h, then 24 h hormone)
Treatment: synthetic androgen R1881 at 10 nM for 24 h
Read-out: 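Per-well raw luminescence of the androgen-driven firefly reporter and of the Renilla control, two replicates each, without normalisation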
Reading the numbers: firefly reporter light: higher = more light from androgen-responsive reporter; Renilla control light: higher = more constitutive control signal (cell number, transfection)
Active means: 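Across duplicate plates, a knock-down whose log firefly/Renilla ratio shifted a set fold down or up from the GFP/LacZ control mean was a hit; the downward cut appears as both 1.5 and 3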
Calls: active = hit: reporter lowered or raised; inactive = no hit
The screen tested about 24,000 reagents; shown is an unselected part of those with a known target gene and a result. In the full data, 246 (1%) got an active call. 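Plates not normalised; calls are printed but the firefly/Renilla ratio behind them is not deposited; fold cut for lowering reported inconsistently.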 Raw values vary from plate to plate and are shown uncorrected. No sequences are given here. The record does not give: the amount of reagent.

The opening 2 records, ahead of the listing:
PH4alphaSG1 [DRSC15080] → firefly reporter light, replicate 1: 1.47e5; firefly reporter light, replicate 2: 1.84e5; Renilla control light, replicate 1: 2.59e6; Renilla control light, replicate 2: 2.77e6; activity call: inactive
RpL13A [DRSC12265] → firefly reporter light, replicate 1: 38070; firefly reporter light, replicate 2: 45129; Renilla control light, replicate 1: 4.64e5; Renilla control light, replicate 2: 4.10e5; activity call: inactive

Main list, repeating the preview:
PH4alphaSG1 [DRSC15080] → firefly reporter light, replicate 1: 1.47e5; firefly reporter light, replicate 2: 1.84e5; Renilla control light, replicate 1: 2.59e6; Renilla control light, replicate 2: 2.77e6; activity call: inactive
RpL13A [DRSC12265] → firefly reporter light, replicate 1: 38070; firefly reporter light, replicate 2: 45129; Renilla control light, replicate 1: 4.64e5; Renilla control light, replicate 2: 4.10e5; activity call: inactive
RpL13A [DRSC27297] → firefly reporter light, replicate 1: 3.05e5; firefly reporter light, replicate 2: 2.43e5; Renilla control light, replicate 1: 3.84e5; Renilla control light, replicate 2: 3.99e5; activity call: inactive
Snm1 [DRSC12130] → firefly reporter light, replicate 1: 33040; firefly reporter light, replicate 2: 68608; Renilla control light, replicate 1: 3.27e5; Renilla control light, replicate 2: 2.85e5; activity call: inactive
yip3 [DRSC04724] → firefly reporter light, replicate 1: 2.37e5; firefly reporter light, replicate 2: 2.10e5; Renilla control light, replicate 1: 1.69e6; Renilla control light, replicate 2: 1.42e6; activity call: inactive
Alp13 [DRSC15781] → firefly reporter light, replicate 1: 1.22e5; firefly reporter light, replicate 2: 1.37e5; Renilla control light, replicate 1: 2.81e6; Renilla control light, replicate 2: 1.82e6; activity call: inactive
Alp13 [DRSC36919] → activity call: inactive
Agxt [DRSC18718] → firefly reporter light, replicate 1: 88366; firefly reporter light, replicate 2: 64049; Renilla control light, replicate 1: 7.23e5; Renilla control light, replicate 2: 5.16e5; activity call: inactive
Agxt [DRSC26115] → firefly reporter light, replicate 1: 3.52e5; firefly reporter light, replicate 2: 3.13e5; Renilla control light, replicate 1: 8.23e5; Renilla control light, replicate 2: 7.17e5; activity call: inactive
LysB [DRSC08673] → firefly reporter light, replicate 1: 1.06e5; firefly reporter light, replicate 2: 1.12e5; Renilla control light, replicate 1: 1.34e6; Renilla control light, replicate 2: 1.62e6; activity call: inactive
dysc [DRSC10273] → firefly reporter light, replicate 1: 2.97e5; firefly reporter light, replicate 2: 2.86e5; Renilla control light, replicate 1: 2.14e6; Renilla control light, replicate 2: 2.51e6; activity call: inactive
dysc [DRSC11040] → firefly reporter light, replicate 1: 3.65e5; firefly reporter light, replicate 2: 2.78e5; Renilla control light, replicate 1: 4.09e6; Renilla control light, replicate 2: 3.28e6; activity call: inactive
dysc [DRSC22334] → firefly reporter light, replicate 1: 9.06e5; firefly reporter light, replicate 2: 8.23e5; Renilla control light, replicate 1: 2.66e6; Renilla control light, replicate 2: 2.34e6; activity call: inactive
dysc [DRSC22824] → firefly reporter light, replicate 1: 4.82e5; firefly reporter light, replicate 2: 8.08e5; Renilla control light, replicate 1: 9.15e5; Renilla control light, replicate 2: 1.22e6; activity call: inactive
dysc [DRSC23128] → firefly reporter light, replicate 1: 4.28e5; firefly reporter light, replicate 2: 7.52e5; Renilla control light, replicate 1: 1.42e6; Renilla control light, replicate 2: 1.55e6; activity call: inactive
dysc [DRSC26188] → firefly reporter light, replicate 1: 4.87e5; firefly reporter light, replicate 2: 5.55e5; Renilla control light, replicate 1: 6.88e5; Renilla control light, replicate 2: 7.40e5; activity call: inactive
CG1494 [DRSC20509] → firefly reporter light, replicate 1: 1.84e5; firefly reporter light, replicate 2: 1.67e5; Renilla control light, replicate 1: 6.05e5; Renilla control light, replicate 2: 4.51e5; activity call: inactive
Lpt [DRSC04291] → firefly reporter light, replicate 1: 2.53e5; firefly reporter light, replicate 2: 2.97e5; Renilla control light, replicate 1: 2.16e6; Renilla control light, replicate 2: 2.29e6; activity call: inactive
Lpt [DRSC04515] → firefly reporter light, replicate 1: 9.14e5; firefly reporter light, replicate 2: 2.89e5; Renilla control light, replicate 1: 1.76e6; Renilla control light, replicate 2: 7.36e5; activity call: inactive
Sidpn [DRSC02056] → firefly reporter light, replicate 1: 7.30e5; firefly reporter light, replicate 2: 8.49e5; Renilla control light, replicate 1: 2.17e6; Renilla control light, replicate 2: 2.59e6; activity call: inactive
EMC10 [DRSC11850] → firefly reporter light, replicate 1: 2.58e5; firefly reporter light, replicate 2: 2.56e5; Renilla control light, replicate 1: 2.20e6; Renilla control light, replicate 2: 2.22e6; activity call: inactive
Srp54 [DRSC03442] → firefly reporter light, replicate 1: 6.48e5; firefly reporter light, replicate 2: 6.00e5; Renilla control light, replicate 1: 1.58e6; Renilla control light, replicate 2: 1.48e6; activity call: inactive
Cyp6a23 [DRSC07383] → firefly reporter light, replicate 1: 63283; firefly reporter light, replicate 2: 1.38e5; Renilla control light, replicate 1: 2.04e6; Renilla control light, replicate 2: 2.04e6; activity call: inactive
Cyp6a23 [DRSC29473] → firefly reporter light, replicate 1: 4.51e5; firefly reporter light, replicate 2: 5.15e5; Renilla control light, replicate 1: 9.49e5; Renilla control light, replicate 2: 9.49e5; activity call: inactive
IntS11 [DRSC15407] → firefly reporter light, replicate 1: 84690; firefly reporter light, replicate 2: 73714; Renilla control light, replicate 1: 6.63e5; Renilla control light, replicate 2: 4.16e5; activity call: inactive
IntS11 [DRSC26912] → firefly reporter light, replicate 1: 3.54e5; firefly reporter light, replicate 2: 4.76e5; Renilla control light, replicate 1: 7.75e5; Renilla control light, replicate 2: 7.58e5; activity call: inactive
yrt [DRSC16559] → firefly reporter light, replicate 1: 57264; firefly reporter light, replicate 2: 50524; Renilla control light, replicate 1: 4.70e5; Renilla control light, replicate 2: 4.34e5; activity call: inactive
